From PubChem BioAssay AID938 (National Center for Advancing Translational Sciences (NCATS), 2007)
Hit rate of the full screen: of about 73,000 compounds, about 1,800 (2.5%) were called active. Inconclusive results (about 13%) are left out. Only a part is listed here, and it is no random draw. Entries without a call were filed so in the source.

Experiment: qHTS Assay for Agonists of the Thyroid Stimulating Hormone Receptor: Activators of Intracellular cAMP Concentrations in Parental HEK 293; also: % of control where 0% means no effect; nearly all actives have a fitted effect of over 55% in size
Settings: parental HEK293 CNG cAMP sensor, membrane potential fluorescence; at 57.1 µM (top of the series; calls follow the shape of the full dose curve)
Description: NIH Chemical Genomics Center [NCGC]
NIH Molecular Libraries Screening Centers Network [MLSCN]
PI Name: Dr. Marvin Gershengorn
This cell based assay utilized a cyclic nucleotide gated ion channel (CNG) as a biosensor for cAMP induction. HEK 293 cells stably expressing the modified CNG were purchased from BD biosciences (http://www.atto.com/products/actone/features_benefits.shtml) . Stimulation of cAMP production causes the CNG to open and subsequent membrane depolarization to occur. A fluorescent membrane potential dye (BD biosciences) was utilized to detect cAMP stimulation in cells.
The cells were maintained in DMEM medium (Invitrogen) containing 10 % FBS (Hyclone), 100 units/ml Penicillin, 100 ug/ml Streptomycin (Invitrogen), and 250 ug/ml Geneticin (Invitrogen) and 1 ug/ml Puromycin (Invitrogen) at 37C in 5% CO2. […]
High Throughput Screening. […] 23 nl/well compound or control was then added to the assay plates, which were incubated for additional 30 min before reading a Envision fluorescence plate reader (Perkin Elmer) in bottom-read mode for fluorescence intensity (emission at 590 nm).
Keywords: cAMP, CNG Ion Channel, quantitative high throughput screening, qHTS, HTS, probe identification, CNG, cAMP, cyclic nucleotide gated ion channel PubChem

| Compound | activation [%] |
| --- | --- |
| COc1cc2c(cc1OC)C(C(=O)N1CCC3(CC1)OCCO3)C(c1ccccc1F)N(C)C2=O (stereo unspecified) | 108 |
